# According to US10532084B2 (EYEBIO KOREA, priority 2016, dated 2020):
# Assay: peptide made by a vendor
# Conditions: whole synthesis, HPLC
substance,measurement,value
[Hyp]GQDGLAGPK,purity (crude or final not stated),99.3%

# Where no end group is shown, it is not given here. [ ]: non-standard residue; d: D form. Hyp = O=C(O)[C@@H]1C[C@@H](O)CN1
